From paper PMC2680019
These are yes or no findings as the source states them, for the method shown. In cells and extracts the contact can be indirect. Tags and fused reporters may be left off the sequences shown.

Target: T1, Myc-tagged Tensin2 1-1021 (ΔSH2ΔPTB) (UniProt Q63HR2)
T1 sequence: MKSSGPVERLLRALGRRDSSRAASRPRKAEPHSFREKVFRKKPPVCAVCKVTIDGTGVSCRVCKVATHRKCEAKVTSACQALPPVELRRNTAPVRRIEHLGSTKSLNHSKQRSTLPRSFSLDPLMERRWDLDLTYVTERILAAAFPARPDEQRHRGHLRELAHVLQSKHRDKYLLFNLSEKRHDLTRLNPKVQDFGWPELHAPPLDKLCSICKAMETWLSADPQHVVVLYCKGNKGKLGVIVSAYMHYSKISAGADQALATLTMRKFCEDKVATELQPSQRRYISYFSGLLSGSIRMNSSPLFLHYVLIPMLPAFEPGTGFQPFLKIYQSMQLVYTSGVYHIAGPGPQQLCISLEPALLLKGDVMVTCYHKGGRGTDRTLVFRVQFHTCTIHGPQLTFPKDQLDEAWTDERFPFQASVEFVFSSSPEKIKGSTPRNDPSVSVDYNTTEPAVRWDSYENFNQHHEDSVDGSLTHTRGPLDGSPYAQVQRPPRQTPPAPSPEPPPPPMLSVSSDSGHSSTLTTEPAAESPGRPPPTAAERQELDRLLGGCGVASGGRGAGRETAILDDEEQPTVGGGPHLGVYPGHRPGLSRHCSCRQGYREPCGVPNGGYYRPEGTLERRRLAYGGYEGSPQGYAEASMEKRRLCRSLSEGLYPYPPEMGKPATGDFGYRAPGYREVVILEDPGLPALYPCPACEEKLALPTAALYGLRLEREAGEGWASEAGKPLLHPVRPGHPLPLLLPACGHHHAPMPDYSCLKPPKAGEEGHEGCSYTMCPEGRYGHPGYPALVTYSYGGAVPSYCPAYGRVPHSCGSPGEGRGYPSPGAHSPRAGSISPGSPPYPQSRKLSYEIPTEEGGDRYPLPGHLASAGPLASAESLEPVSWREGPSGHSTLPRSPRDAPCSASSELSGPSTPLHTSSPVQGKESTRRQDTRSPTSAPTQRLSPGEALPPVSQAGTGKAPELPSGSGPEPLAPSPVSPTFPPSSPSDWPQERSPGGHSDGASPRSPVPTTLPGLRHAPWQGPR
Test: co-IP; HEK293T co-transfected with Myc-tagged tensin and FLAG-tagged DLC1 (or GFP-tagged DLC2); cleared lysate in NET-N buffer (25 mM Tris-HCl pH 8.0, 50 mM NaCl, 0.2 mM EDTA, 0.1% NP40); anti-Myc antibody overnight at 4°C, protein-A sepharose, 5 washes; blot with anti-FLAG (anti-GFP for DLC2)

## FLAG-tagged DLC1 FL (Deleted in liver cancer 1, wild-type) (from UniProt Q96QB1-1)
  binding: no binding
